Assay [1] addresses GST-MP2 (MDM2 mini-protein, amino acids 108–207) (human) (UniProt Q00987). The experiment in a line: pull-down; GST-MDM2 fusion proteins or GST alone on Glutathione Sepharose 4B beads, incubated with ^35S-labelled in vitro translated MAGE-A2; SDS-PAGE and fluorography; only the target purified.
Assay [2] has as its target GST-MP1 (MDM2 mini-protein, amino acids 1–110) (human) (UniProt Q00987). Described as above.
Assay [3] addresses GST-MP3 (MDM2 mini-protein, amino acids 203–282) (human) (UniProt Q00987). The assay is described as above.
For assay [4], the target named is GST-MP4 (MDM2 mini-protein, amino acids 279–491) (human) (UniProt Q00987). Described as above.
In assay [5] the target is GST-full length human MDM2 (human) (UniProt Q00987). Described as above.
In assay [6] the target is MDM2 peptide 451–465 (biotinylated) (human) (UniProt Q00987). In words: pull-down; pepscan: 10 μg of biotinylated 15-mer MDM2 peptide on streptavidin-agarose beads, ^35S-labelled in vitro translated MAGE-A2 added for 2 hours at 4°C, washed in PBS/0.1% Tween-20; SDS-PAGE and fluorography; only the target purified.
The target in assay [7] is MDM2 peptide 311–325 (biotinylated) (human) (UniProt Q00987). The description is as above.
Assay [8] has as its target MDM2 peptide 481–491 (biotinylated, C-terminal peptide) (human) (UniProt Q00987). Described as above.
Assay [9] addresses MDM2 peptide 291–305 (biotinylated) (human) (UniProt Q00987). Described as above.
Assay [10] has as its target MDM2 peptide 51–65 (biotinylated) (human) (UniProt Q00987). The description is as above.
For assay [11], the target named is MDM2 peptide 151–165 (biotinylated) (human) (UniProt Q00987). The description is as above.
The target of assay [12] is MDM2 peptide 461–475 (biotinylated) (human) (UniProt Q00987). The description is as above.
Assay [13] deals with MDM2 peptide 171–185 (biotinylated) (human) (UniProt Q00987). The assay is described as above.
The target in assay [14] is MDM2 peptide 191–205 (biotinylated) (human) (UniProt Q00987). The assay is described as above.
Assay [15] concerns the target MDM2 peptide 91–105 (biotinylated) (human) (UniProt Q00987). Described as above.
The target of assay [16] is GST-MP1 (MDM2 mini-protein, amino acids 1–110) (human) (UniProt Q00987). The experiment in a line: pull-down; GST-MP1 on glutathione sepharose 4B beads, ^35S-radiolabelled MAGE-A2 or p53, in the presence of increasing concentrations of Nutlin-3a; fluorography and densitometry; only the target purified.
Assay [17] has as its target GFP-MP1 (MDM2 amino acids 1–110 fused to green fluorescent protein) (human) (UniProt Q00987). The experiment in a line: co-IP; H1299 cells transfected with GFP-MP1 or GFP alone together with MAGE-A2 or p53.

The chains behind the UniProt entries cited, without tags or fusion partners. Where a name states a change or a piece, a line headed by the entry shows the natural chain unless it says otherwise. A line that says so, or that is headed by a name, gives the form on record, which may keep a tag or linker. Residues count along the entry.
UniProt Q00987: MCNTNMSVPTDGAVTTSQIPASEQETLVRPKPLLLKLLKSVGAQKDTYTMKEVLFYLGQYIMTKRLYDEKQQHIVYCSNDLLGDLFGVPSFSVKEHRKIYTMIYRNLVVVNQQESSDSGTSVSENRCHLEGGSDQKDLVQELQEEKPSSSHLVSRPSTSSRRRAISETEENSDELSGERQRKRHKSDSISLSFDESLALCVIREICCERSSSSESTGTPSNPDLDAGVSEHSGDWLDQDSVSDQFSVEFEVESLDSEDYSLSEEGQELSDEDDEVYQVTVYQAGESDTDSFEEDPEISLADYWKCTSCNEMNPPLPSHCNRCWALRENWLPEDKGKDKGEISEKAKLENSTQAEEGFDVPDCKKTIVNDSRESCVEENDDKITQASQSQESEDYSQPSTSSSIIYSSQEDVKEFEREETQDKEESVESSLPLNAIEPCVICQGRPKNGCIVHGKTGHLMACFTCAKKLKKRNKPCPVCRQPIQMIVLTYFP
GFP-MP1 (MDM2 amino acids 1–110 fused to green fluorescent protein): residues 1-110 of Q00987
GST-MP2 (MDM2 mini-protein, amino acids 108–207): residues 108-207 of Q00987
GST-MP3 (MDM2 mini-protein, amino acids 203–282): residues 203-282 of Q00987
GST-MP4 (MDM2 mini-protein, amino acids 279–491): residues 279-491 of Q00987
UniProt P43356: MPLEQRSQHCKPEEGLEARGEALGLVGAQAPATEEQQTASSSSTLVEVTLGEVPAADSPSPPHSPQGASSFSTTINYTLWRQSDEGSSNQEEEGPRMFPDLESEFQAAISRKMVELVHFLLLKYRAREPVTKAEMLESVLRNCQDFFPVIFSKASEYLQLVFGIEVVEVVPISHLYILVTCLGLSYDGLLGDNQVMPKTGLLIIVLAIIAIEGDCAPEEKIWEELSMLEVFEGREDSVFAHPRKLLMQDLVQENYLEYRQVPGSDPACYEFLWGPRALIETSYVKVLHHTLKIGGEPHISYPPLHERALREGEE

Results are given in words; binding and its absence hold for the method and conditions named. In cells and extracts the contact can be indirect. Some binding calls cover weakened binding; strength is not graded here.

Take “^35S-labelled in vitro-translated MAGE-A2 (from UniProt P43356 1-314)”: the binding result is given as “binds weakly” in assay [1]; “binds” in assay [2]; “binds weakly” in assay [3]; “binds” in [4]; “binds” in assay [5]; “binds” in assay [6]. The binding entry was “binds weakly” in [7]; “binds” in assay [8]; “binds weakly” in assay [9]; “binds” in assay [10]; “binds weakly” in assay [11]; “binds” in [12]. The binding entry is listed as “binds weakly” in assay [13], “binds weakly” in assay [14], “binds” in [15] and “binds” in assay [16].

On to “HA-tagged MAGE-A2 (expressed in H1299 cells) (from UniProt P43356 1-314)”, for which, in assay [17], the binding result is on record as “binds”.

The values above are taken from publication PMC4441487.
